Measured values: publication PMC7217486
Results are given in words; binding and its absence hold for the method and conditions named. Binding can be weak; no strength is given.

These substances were tested against T1, BLN03 (Bremia lactucae isolate Bl:24) (assay: two-hybrid; GAL4 system; effector baits (GAL4-DBD, pDEST32, yeast Y8930) mated with a lettuce cDNA prey library (GAL4-AD, pDEST22, yeast Y8800); diploids selected on Sc-Leu-Trp-His; interactions confirmed by retransformation of bait and prey; only preys found in two or more colonies kept).
T1 sequence: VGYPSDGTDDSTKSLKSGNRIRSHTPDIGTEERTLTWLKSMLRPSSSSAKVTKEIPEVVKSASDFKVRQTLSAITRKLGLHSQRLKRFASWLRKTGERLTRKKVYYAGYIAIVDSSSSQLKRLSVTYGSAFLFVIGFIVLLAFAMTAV

Substance | binding
LsRTNLB05 (Lactuca sativa cv. Olof) | binds

These substances were tested against T2, BLN04 (Bremia lactucae isolate Bl:24) in the same assay as above.
T2 sequence: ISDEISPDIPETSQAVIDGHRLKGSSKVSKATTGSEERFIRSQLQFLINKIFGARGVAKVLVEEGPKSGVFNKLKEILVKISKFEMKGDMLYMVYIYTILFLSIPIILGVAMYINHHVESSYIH

Substance | binding
LsRTNLB05 (Lactuca sativa cv. Olof) | binds
Lsa008464.1 (Lactuca sativa cv. Olof) | binds
Lsa040031.1 (Lactuca sativa cv. Olof) | binds

What follows are substances tested against T3, BLR05 (Bremia lactucae isolate Bl:24) (UniProt P0CU86) in the same assay as above.
T3 sequence: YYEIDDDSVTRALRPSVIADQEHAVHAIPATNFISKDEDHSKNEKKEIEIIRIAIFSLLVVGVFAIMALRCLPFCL

Substance | binding
LsRTNLB05 (Lactuca sativa cv. Olof) | binds
Lsa002329.1 (Lactuca sativa cv. Olof) | binds
Lsa008464.1 (Lactuca sativa cv. Olof) | binds
Lsa034832.1 (Lactuca sativa cv. Olof) | binds
Lsa039137.1 (Lactuca sativa cv. Olof) | binds
Lsa040031.1 (Lactuca sativa cv. Olof) | binds

What follows are substances tested against T4, BLR08 (Bremia lactucae isolate Bl:24) (UniProt P0CU87) in the same assay as above.
T4 sequence: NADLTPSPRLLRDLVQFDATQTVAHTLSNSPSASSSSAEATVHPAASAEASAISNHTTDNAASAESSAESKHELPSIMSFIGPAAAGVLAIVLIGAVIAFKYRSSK

Substance | binding
LsRTNLB05 (Lactuca sativa cv. Olof) | binds
Lsa001248.1 (Lactuca sativa cv. Olof) | binds
Lsa008464.1 (Lactuca sativa cv. Olof) | binds
Lsa040031.1 (Lactuca sativa cv. Olof) | binds

What follows are substances tested against T5, BLR09 (Bremia lactucae isolate Bl:24) (UniProt P0CU88) in the same assay as above.
T5 sequence: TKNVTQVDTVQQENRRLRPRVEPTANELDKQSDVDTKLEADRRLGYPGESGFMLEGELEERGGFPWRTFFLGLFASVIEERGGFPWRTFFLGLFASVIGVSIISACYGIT

Substance | binding
LsRTNLB05 (Lactuca sativa cv. Olof) | binds
Lsa008464.1 (Lactuca sativa cv. Olof) | binds
Lsa020711.1 (Lactuca sativa cv. Olof) | binds
Lsa027896.1 (Lactuca sativa cv. Olof) | binds
Lsa033367.1 (Lactuca sativa cv. Olof) | binds
Lsa040031.1 (Lactuca sativa cv. Olof) | binds
Lsa040900.1 (Lactuca sativa cv. Olof) | binds

The substances below were run against T6, BLR38 (Bremia lactucae isolate Bl:24) in the same assay as above.
T6 sequence: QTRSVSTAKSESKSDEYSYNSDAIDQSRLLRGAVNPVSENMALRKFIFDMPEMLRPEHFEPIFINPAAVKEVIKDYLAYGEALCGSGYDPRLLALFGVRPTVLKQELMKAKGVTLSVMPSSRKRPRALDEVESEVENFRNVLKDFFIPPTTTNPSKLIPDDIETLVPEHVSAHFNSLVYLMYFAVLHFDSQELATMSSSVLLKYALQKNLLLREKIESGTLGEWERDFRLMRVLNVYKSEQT

Substance | binding
LsFLX-like2 (Lactuca sativa cv. Olof) | binds
Lsa043843.1 (Lactuca sativa cv. Olof) | binds
